Reference: patent US20120071539A1, “COMPOUNDS AND METHODS FOR MODULATING THE SILENCING OF A POLYNUCLEOTIDE OF INTEREST” (Emory University, priority 2006, published 2012)
Structures can show the parent of a compound that is named as a salt. At least one compound was matched to its structure with a doubt left.

How the values were obtained:
[1] = tested on: siRNA-mediated mRNA degradation; assay: cell-based reporter screen: human 293 cells stably expressing GFP plus siRNA hairpin against GFP; conditions: Table 1
Protocol: FIG. 2 discloses one embodiment of the cell-based reporter system of the invention. In this example, a human 293-cell line stably expressing a reporter gene, GFP, was used. This cell line was further transfected with a construct that expresses siRNA hairpin against GFP, which can decrease the level of GFP expression. Individual clones were isolated with greatly (although not completely) reduced GFP expression.
Using the above-identified clones, a screen was performed using The Spectrum Collection (MicroSource Discovery Systems, Inc., Gaylordsville, Conn., United States of America), which contains 2000 biologically active and structurally diverse compounds from libraries of known drugs, experimental bioactives, and pure natural products. For example, in one embodiment, a pilot screen of this library identified one inhibitor and one enhancer of siRNA-mediated mRNA degradation.
To identify the chemical compounds that modulate the siRNA and miRNA pathway, a screening strategy was used. A human 293-cell line stably expressing a reporter gene, GFP, was used. This cell line was further transfected with a construct that expresses siRNA hairpin against GFP, which could knock down the expression of GFP. […] Using these clones, a screen was performed using The Spectrum Collection, which contains 2000 biologically active and structurally diverse compounds from libraries of known drugs, experimental bioactives, and pure natural products.
Human 293 cells stably expressing a reporter gene, GFP, were further transfected with a construct that expresses an siRNA hairpin against GFP, which results in the knock-down of the expression of GFP. Transfected cells containing the siRNA suppressed GPF expression were split and then treated with an effective amount of enoxacin (FIG. 4, second panel) and were grown for a period of 24-48 hours.

[2] = tested on: Clone#3, 293-EGFP-siGFP cells; assay: plate-reader chemical library screen, GFP signal in Clone#3 cells; type: cell-based, human
Text: Further, in some embodiments, additional screens using the same library can be performed to identify other modulators of the siRNA and the miRNA pathways. In some embodiments, instead of examining the GFP signal visually under a microscope, the GFP signal can be quantified using an automatic plate reader. In such embodiments, two additional rounds of screening can be performed. In the first round of screening, the clones can be treated with compounds from a library, e.g., The Spectrum Collection, alone and the GFP level can be quantified after a period of time, e.g., 48 hours. In the second round of screening, the clones can be treated with compounds from a library, e.g., The Spectrum Collection, in the presence of 50 μM RNAi-E, i.e., enoxacin. This assay enables compounds that can modulate the activity of RNAi-E to be identified.
The presently disclosed chemical library also was screened using a plate reader to quantify the GFP signal intensity. The following screens were conducted: (1) repeating chemical screen using plate reader to quantify the GFP signal (50 mM each drug); (2) treating cells with 50 mM RNAi-I (30 mM each additional drug); and treating cells with […] (30 mM each additional drug).
For each screen, two types of cells were used: Clone#3 and EGFP. Clone#3 cells are 293-EGFP-siGFP and could be used to identify the modulators of the RNAi pathway. EGFP cells are 293-EGFP only and were used as a control to eliminate the compounds that could kill the cells or interfere GFP signals that are not related to RNAi pathway. The results for each screen are summarized in Table 2 and Table 3, respectively.
In these three screens, compounds were identified that could either enhance or inhibit RNAi activity in Clone#3, but had no effect on EGFP cells, which would indicate that these compounds might specifically work on RNAi pathway. The modulation of RNAi activity by these compounds was calculated as the percentage of GFP signal to Clone#3 control cells.

[3] = tested on: shRNA against Luciferase mRNA; assay: GL-3 luciferase reporter in cells expressing shRNA against luciferase; type: cell-based; conditions: FIG. 5
Text: In this example, a luciferase reporter construct GL-3 was transfected into the cells expressing shRNA against Luciferase mRNA.

**Q.** What does the source list for `Cc1ccc(/C(=C\CN2CCCC2)c2ccccn2)cc1` [Triprolidine Hydrochloride]?
**A.** Modulation Effect (inhibit or enhance siRNA-mediated mRNA degradation) [1]: Enhancer; Effect ([2]; Table 2): Enhancer; Effect ([2]; as listed in Table 3): Enhancer

**Q.** Which “Modulation Effect (inhibit or enhance siRNA-mediated mRNA degradation)” value [1] does the source give for `CC(=O)N(O)CCCCCNC(=O)CCC(=O)N(O)CCCCCNC(=O)CCC(=O)N(O)CCCCCN` [Deferoxamine Mesylate] here?
**A.** Enhancer

**Q.** And the Effect ([2]; Table 2)?
**A.** Enhancer

**Q.** What about the Effect ([2]; as listed in Table 3) of the same molecule?
**A.** Enhancer

**Q.** With `CC(C)C[C@H]1C(=O)N2CCC[C@H]2[C@]2(O)O[C@](NC(=O)[C@@H]3C=C4c5cccc6[nH]c(Br)c(c56)C[C@H]4N(C)C3)(C(C)C)C(=O)N12` [Bromocriptine Mesylate] as the molecule, how does the “Modulation Effect (inhibit or enhance siRNA-mediated mRNA degradation)” value [1] read?
**A.** Enhancer

**Q.** What about the Effect ([2]; Table 2) of the same molecule?
**A.** Enhancer

**Q.** And the Effect ([2]; as listed in Table 3)?
**A.** Enhancer

**Q.** Which “knock-down efficiency of shRNA against luciferase mRNA” value [3] does the source give for `CC1COc2c(N3CCN(C)CC3)c(F)cc3c(=O)c(C(=O)O)cn1c23` (centres unmarked) [ofloxacin] here?
**A.** increased the knock-down efficiency

**Q.** What about the “siRNA-mediated mRNA degradation” value [3] of the same molecule?
**A.** enhance siRNA-mediated mRNA degradation
